Measurements as given in article PMC1904229.
These are yes or no findings as the source states them, for the method shown. Some entries that bind do so weakly or less than the wild type.

Target: T1, Murine full-length WOX1, bait in pSos (murine) (UniProt Q91WL8)
T1 sequence: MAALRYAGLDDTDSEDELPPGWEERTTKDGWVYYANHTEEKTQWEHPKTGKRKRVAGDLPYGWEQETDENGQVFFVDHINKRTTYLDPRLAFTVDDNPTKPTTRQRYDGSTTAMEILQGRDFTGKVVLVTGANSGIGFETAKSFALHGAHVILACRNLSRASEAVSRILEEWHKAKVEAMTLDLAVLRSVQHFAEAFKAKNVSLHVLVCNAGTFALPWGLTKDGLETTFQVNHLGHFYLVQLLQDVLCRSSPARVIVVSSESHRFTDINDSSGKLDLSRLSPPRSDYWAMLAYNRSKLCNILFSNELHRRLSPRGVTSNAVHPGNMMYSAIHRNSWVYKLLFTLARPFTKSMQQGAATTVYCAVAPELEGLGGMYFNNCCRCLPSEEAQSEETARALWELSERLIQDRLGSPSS
Assay: two-hybrid; Ras rescue-based cytoplasmic yeast two-hybrid (CytoTrap, Stratagene); Sos-tagged bait (pSos) and myristoylation-signal-tagged, membrane-anchored target (pMyr); growth of mutant yeast cdc25H at 37°C on a selective plate containing galactose

B1: Full-length TRADD (tumor necrosis factor receptor type 1-associated death domain protein), two-hybrid construct (protein, UniProt Q15628 1-312)
chain: MAAGQNGHEEWVGSAYLFVESSLDKVVLSDAYAHPQQKVAVYRALQAALAESGGSPDVLQMLKIHRSDPQLIVQLRFCGRQPCGRFLRAYREGALRAALQRSLAAALAQHSVPLQLELRAGAERLDALLADEERCLSCILAQQPDRLRDEELAELEDALRNLKCGSGARGGDGEVASAPLQPPVPSLSEVKPPPPPPPAQTFLFQGQPVVNRPLSLKDQQTFARSVGLKWRKVGRSLQRGCRALRDPALDSLAYEYEREGLYEQAFQLLRRFVQAEGRRATLQRLVEALEENELTSLAEDLLGLTDPNGGLA
**Q.** For B1, which binding is on record?
**A.** binds
